Laboratory results reported in article doi:10.1101/2025.03.09.642194.
These are yes or no findings as the source states them, for the method shown. Binding seen in cells or lysates may run through a third protein. Some results given as binding are weak or reduced against the parent protein; the word gives no strength.

Protein sequences, listed by entry. Tags and fused reporters are not part of them. Residues count along the entry.
UniProt O35375, residues 21-931: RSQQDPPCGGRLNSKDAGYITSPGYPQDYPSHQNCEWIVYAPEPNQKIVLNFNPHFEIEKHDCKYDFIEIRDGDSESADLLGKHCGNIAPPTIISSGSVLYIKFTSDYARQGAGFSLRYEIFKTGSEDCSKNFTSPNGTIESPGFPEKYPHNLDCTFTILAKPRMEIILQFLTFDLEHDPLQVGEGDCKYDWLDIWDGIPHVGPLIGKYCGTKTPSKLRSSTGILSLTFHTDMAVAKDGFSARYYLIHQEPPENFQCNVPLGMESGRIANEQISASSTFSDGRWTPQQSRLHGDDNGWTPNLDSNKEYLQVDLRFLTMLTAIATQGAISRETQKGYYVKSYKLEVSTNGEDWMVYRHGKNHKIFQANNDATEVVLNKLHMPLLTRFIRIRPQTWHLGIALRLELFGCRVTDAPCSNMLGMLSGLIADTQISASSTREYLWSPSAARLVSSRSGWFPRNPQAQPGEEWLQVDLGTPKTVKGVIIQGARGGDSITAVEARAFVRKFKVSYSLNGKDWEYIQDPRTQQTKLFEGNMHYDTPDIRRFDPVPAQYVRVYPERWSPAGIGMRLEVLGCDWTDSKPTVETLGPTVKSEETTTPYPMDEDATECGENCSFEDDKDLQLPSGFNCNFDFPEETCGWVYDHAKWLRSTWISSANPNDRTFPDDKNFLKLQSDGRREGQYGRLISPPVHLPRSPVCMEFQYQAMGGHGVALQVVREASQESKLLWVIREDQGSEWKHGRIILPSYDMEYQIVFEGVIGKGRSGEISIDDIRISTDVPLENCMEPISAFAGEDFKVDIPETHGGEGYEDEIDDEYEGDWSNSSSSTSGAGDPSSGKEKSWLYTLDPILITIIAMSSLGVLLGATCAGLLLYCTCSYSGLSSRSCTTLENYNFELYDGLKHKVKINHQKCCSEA

Key:
[1] = target: Neuropilin 2 (mouse (endogenous in immortalised mouse lung microvascular ECs)) (UniProt O35375); assay: co-IP
[2] = target: T1, p120-catenin (Ctnnd1) (mouse (endogenous in immortalised mouse lung microvascular ECs)) (UniProt P30999); assay: co-IP
T1 sequence: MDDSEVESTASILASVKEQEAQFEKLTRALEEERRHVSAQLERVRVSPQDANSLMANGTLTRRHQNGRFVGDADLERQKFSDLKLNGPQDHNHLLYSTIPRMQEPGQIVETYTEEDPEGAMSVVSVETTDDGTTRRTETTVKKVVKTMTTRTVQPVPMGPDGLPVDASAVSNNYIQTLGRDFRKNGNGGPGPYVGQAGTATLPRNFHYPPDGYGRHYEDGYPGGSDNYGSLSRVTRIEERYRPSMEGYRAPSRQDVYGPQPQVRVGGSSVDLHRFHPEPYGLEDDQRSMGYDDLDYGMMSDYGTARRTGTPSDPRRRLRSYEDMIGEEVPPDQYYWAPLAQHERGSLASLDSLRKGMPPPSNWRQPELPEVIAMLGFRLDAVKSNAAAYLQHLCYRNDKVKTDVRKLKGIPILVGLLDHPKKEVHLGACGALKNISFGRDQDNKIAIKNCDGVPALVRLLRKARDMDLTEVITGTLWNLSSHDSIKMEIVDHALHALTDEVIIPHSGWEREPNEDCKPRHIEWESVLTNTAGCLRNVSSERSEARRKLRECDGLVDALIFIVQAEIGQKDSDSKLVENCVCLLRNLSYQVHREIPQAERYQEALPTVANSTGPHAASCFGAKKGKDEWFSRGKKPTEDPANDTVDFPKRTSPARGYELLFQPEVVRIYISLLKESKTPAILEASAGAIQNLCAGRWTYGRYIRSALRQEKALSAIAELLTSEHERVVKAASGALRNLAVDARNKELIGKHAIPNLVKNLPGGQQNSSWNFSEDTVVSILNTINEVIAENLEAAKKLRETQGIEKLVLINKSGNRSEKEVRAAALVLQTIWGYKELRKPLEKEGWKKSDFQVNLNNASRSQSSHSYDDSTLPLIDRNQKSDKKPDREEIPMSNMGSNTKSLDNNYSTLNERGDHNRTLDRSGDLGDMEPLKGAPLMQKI

B1: Vascular endothelial (VE)-cadherin (Cdh5) (protein, UniProt P55284 46-784)
chain: DWIWNQMHIDEEKNESLPHYVGKIKSNVNRQNAKYVLQGEFAGKIFGVDANTGNVLAYERLDREKVSEYFLTALIVDKNTNKNLEQPSSFTVKVHDINDNWPVFSHQVFNASVPEMSAIGTSVIRVTAVDADDPTVAGHATVLYQIVKGNEYFSIDNSGLIFTKIKNLDREKQAEYKIVVETQDALGLRGESGTATVMIRLEDINDNFPVFTQSTYTFSVPEDIRVGKPLGFLTVVDPDEPQNRMTKYSIMQGEYRDTFTIETDPKRNEGIIKPTKSLDYEVIQQYTFYIEATDPTIRYEYLSSTSGKNKAMVTINVLDVDEPPVFQRHFYHFKLPENQKKPLIGTVVAKDPDKAQRSIGYSIRKTSDRGQFFRITKQGNIYNEKELDRETYAWYNLTVEANELDSRGNPVGKESIVQVYIEVLDENDNPPEFAQPYEPKVCENAAQGKLVVQISATDKDVVPVNPKFKFALKNEDSNFTLINNHDNTANITVKYGQFNREHAKFHYLPVLISDNGVPSLTGTSTLTVGVCKCNEQGEFTFCEEMAAQAGVSIQALVAIFLCILTITVITLLIILRRRIRKQAHAHSKSALEIHEQLVTYDEEGGGEMDTTSYDVSVLNSVRGGSTKPLRSTMDARPAVYTQVQKPPRLAPGLHGGPREMATMIDVKKEEADNDGGGPPYDTLHIYGYEGAESIAESLSSLSTNSSDSDIDYDFLNDWGPRFKMLAELYGSDPQEELII
binding [1]: binds | binding [2]: binds
